Experimental data reported in patent US11767289B2, “Methods and compositions for pest control” (VMI Foundation, priority 2010, dated 2023).

What was measured:
[1] = test system: Monomorium ebeninum males; assay: GC-MS analysis of male ant extracts for tyramides; conditions: M. ebeninum males trisected into heads, thoraxes, gasters
[2] = test system: Megalomyrmex staudingeri males; assay: GC-MS of methanol extracts of winged males (male tyramides); conditions: collection RMMA040613-05
[3] = test system: Megalomyrmex wallecei males; assay: as above; conditions: collection RMMA050710-01

| Compound | body part in which the compounds occur (trisection) [1] | Tyramides, relative ratios of the compounds [2] | Tyramides, relative ratios of the compounds [3] |
| --- | --- | --- | --- |
| CCCC(=O)NCCc1ccc(O)cc1 [Compound 3, N-[2-(4-hydroxyphenyl)ethyl]butanamide] | found only in the gasters of the ants | 1.5 | 1 |
| CCCCCC(=O)NCCc1ccc(O)cc1 [Compound 6, N-[2-(4-hydroxyphenyl)ethyl]hexanamide] | – | 1 | 1 |
| CC(C)CC(=O)C(=O)NCCc1ccc(O)cc1 [Compound 7c, N-[2-(4-Hydroxyphenyl)ethyl]-4-methyl-2-oxopentanamide] | found only in the gasters of the ants | – | – |
